Data reported in the supplement of paper PMC10849652.
The list shows a part of the results.

Protein sequences, listed by entry. Tags and fused reporters are not part of them. Lines headed by an entry give the natural chain unless they say otherwise; changes in a name come on top.
UniProt Q9H6N6: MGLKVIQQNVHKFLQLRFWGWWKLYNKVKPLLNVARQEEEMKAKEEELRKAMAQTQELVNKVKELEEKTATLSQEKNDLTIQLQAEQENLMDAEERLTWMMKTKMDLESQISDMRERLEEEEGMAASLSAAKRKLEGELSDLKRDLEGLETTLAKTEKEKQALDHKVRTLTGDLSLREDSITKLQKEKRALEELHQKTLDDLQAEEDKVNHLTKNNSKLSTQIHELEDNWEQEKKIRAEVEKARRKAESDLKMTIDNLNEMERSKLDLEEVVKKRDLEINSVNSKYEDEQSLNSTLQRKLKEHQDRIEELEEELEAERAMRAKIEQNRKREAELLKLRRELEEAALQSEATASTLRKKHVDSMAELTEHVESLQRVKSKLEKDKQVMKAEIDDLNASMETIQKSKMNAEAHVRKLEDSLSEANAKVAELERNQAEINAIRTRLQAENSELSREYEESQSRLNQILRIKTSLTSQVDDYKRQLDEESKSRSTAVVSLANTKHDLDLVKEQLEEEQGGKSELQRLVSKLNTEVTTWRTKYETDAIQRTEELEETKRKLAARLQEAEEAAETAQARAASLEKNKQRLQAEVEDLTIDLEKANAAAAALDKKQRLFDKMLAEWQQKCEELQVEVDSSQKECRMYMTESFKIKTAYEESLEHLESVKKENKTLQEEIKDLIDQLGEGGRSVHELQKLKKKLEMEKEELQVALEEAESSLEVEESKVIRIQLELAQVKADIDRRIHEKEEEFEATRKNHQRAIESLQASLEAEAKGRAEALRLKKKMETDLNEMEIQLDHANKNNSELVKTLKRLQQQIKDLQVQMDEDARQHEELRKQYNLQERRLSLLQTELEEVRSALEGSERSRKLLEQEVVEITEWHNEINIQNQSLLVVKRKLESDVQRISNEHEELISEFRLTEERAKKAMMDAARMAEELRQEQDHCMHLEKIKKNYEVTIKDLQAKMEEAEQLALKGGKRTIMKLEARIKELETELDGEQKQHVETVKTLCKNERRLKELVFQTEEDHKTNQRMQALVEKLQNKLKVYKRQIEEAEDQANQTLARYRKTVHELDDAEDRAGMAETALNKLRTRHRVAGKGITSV
UniProt Q68DK7: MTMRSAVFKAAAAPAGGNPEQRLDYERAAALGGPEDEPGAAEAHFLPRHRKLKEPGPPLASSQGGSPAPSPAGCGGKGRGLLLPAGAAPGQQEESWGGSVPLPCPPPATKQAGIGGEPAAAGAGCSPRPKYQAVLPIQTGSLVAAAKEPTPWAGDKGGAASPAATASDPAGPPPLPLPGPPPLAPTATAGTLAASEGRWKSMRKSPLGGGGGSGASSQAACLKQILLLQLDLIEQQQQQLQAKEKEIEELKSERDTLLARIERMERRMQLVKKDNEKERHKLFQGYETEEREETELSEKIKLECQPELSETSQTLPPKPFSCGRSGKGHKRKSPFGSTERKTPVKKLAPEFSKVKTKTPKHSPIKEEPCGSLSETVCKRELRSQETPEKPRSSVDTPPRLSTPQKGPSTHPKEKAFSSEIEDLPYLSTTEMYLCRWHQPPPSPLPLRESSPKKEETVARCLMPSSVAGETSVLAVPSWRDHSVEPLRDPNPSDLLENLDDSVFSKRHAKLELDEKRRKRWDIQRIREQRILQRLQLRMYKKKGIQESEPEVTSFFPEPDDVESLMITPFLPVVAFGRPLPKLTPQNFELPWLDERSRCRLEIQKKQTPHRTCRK
UniProt P49914: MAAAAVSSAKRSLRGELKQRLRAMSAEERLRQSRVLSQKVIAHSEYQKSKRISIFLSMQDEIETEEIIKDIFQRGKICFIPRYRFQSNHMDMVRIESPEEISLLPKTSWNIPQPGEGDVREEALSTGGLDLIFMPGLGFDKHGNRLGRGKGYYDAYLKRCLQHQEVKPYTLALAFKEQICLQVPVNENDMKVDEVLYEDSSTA
UniProt P58546, whole entry, looked up: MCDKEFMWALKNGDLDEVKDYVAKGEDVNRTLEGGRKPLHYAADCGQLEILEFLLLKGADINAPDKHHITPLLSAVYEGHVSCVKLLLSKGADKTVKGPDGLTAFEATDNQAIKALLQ
UniProt Q9BQG0: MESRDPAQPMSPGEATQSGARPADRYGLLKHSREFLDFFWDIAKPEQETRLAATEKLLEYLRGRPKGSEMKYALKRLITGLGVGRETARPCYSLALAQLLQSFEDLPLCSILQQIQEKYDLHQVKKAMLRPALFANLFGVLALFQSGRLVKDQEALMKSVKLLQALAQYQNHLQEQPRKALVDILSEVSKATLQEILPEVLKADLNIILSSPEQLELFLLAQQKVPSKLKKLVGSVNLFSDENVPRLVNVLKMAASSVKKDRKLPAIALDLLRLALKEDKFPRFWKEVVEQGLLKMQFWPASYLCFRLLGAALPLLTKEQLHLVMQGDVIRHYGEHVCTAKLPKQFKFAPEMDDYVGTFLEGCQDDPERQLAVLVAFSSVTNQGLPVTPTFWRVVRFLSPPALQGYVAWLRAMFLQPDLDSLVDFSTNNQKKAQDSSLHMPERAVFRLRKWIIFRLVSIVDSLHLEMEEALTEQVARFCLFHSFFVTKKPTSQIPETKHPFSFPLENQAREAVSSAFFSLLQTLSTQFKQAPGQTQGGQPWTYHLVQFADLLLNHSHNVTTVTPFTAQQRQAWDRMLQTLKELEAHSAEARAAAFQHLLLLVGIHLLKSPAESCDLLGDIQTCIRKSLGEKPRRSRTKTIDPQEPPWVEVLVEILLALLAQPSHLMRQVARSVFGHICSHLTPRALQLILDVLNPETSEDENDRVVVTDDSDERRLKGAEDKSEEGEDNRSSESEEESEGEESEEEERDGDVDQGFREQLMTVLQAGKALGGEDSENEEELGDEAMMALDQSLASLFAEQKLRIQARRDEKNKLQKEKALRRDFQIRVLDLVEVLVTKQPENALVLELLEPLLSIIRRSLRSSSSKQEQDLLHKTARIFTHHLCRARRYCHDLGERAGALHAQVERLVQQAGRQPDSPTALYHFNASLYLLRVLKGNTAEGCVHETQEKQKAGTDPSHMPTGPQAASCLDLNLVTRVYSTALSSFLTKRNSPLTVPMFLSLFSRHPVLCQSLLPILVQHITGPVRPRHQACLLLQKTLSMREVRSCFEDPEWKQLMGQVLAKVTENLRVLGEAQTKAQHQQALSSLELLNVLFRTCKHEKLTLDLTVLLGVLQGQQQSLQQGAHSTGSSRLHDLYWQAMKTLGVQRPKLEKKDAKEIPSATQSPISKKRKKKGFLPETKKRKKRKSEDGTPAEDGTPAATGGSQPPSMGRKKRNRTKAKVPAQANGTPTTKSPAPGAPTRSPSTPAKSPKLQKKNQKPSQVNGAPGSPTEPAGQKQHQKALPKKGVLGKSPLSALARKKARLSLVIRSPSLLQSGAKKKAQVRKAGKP
UniProt P42285: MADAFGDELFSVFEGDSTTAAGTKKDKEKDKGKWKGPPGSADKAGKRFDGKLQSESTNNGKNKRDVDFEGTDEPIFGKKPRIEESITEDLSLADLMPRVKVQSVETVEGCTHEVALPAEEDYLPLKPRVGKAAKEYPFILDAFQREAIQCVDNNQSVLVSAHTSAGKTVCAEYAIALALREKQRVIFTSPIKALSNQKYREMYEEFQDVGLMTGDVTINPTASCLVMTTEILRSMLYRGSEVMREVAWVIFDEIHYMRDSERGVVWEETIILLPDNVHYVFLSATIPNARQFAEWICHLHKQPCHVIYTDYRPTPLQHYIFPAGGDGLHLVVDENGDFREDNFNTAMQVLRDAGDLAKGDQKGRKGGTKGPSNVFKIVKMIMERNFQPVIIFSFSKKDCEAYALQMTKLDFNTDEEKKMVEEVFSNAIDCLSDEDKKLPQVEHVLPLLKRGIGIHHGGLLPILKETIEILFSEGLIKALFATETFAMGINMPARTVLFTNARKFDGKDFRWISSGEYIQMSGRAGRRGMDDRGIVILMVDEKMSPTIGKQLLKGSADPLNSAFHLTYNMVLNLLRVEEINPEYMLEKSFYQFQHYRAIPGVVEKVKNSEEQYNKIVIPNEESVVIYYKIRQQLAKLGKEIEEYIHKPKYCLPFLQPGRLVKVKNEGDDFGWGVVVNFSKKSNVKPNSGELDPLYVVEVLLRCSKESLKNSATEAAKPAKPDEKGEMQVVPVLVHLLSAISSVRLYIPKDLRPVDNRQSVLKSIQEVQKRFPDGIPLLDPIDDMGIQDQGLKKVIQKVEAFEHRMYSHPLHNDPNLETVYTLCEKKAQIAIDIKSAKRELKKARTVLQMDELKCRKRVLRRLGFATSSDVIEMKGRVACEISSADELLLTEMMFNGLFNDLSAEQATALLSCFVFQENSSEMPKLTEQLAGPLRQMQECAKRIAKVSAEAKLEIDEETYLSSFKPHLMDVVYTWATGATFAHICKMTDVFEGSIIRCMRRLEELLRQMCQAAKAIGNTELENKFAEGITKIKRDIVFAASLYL
UniProt Q6UB35, whole entry, looked up: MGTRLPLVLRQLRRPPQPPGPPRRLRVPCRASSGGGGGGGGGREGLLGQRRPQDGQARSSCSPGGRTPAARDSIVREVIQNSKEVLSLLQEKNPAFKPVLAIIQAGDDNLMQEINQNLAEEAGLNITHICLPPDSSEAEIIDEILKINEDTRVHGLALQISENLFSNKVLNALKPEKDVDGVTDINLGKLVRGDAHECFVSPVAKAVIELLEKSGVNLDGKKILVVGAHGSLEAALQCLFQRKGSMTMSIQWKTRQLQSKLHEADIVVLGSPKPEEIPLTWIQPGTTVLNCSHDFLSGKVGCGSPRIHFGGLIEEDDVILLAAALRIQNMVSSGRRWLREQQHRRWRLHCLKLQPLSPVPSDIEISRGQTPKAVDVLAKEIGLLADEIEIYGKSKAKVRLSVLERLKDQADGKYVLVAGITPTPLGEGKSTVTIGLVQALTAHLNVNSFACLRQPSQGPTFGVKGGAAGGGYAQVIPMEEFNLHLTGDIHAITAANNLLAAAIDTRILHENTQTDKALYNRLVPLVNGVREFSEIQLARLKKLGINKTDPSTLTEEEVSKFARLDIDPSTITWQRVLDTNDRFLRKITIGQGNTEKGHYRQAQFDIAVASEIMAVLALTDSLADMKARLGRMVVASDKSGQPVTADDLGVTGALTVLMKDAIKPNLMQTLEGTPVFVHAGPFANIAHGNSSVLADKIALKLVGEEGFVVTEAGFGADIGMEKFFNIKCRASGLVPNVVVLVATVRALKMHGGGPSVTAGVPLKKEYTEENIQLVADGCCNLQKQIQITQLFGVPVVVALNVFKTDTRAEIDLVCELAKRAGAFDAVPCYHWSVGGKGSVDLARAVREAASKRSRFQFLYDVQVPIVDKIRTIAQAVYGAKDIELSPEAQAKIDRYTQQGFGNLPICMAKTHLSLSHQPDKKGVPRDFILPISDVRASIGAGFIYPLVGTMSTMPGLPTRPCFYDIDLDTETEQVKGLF
UniProt Q9BUK6: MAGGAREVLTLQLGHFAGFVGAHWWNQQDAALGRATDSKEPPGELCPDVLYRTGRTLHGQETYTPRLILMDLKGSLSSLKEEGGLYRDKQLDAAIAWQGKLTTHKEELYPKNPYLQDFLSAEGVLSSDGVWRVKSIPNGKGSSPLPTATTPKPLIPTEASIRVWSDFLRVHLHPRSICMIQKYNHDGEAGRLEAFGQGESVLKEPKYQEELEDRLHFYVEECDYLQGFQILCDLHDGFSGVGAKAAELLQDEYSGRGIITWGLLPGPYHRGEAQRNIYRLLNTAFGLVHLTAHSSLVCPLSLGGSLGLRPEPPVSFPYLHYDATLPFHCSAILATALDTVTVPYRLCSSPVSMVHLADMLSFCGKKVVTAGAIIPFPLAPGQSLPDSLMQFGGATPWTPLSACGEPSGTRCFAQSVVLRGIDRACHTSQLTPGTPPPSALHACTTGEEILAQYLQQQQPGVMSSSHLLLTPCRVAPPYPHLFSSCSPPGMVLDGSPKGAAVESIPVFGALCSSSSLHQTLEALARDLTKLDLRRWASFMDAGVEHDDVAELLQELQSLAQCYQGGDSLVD
UniProt P13640: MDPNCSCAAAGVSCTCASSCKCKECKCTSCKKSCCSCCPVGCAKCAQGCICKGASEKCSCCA

Columns and labels:
Experiment in all cases: log2 fold change, soluble protein after heating vs DMSO (PISA); higher = thermal stabilisation; K562 cells, 10 uM, 30 min; active = over 0.2 and 3.5 SD of the protein, either way, in both replicates (recomputed)
bafetinib = compound: Cc1ccc(NC(=O)c2ccc(CN3CC[C@H](N(C)C)C3)c(C(F)(F)F)c2)cc1Nc1nccc(-c2cncnc2)n1 [bafetinib]
How it was run: (§1)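 For each measurement, 10 μM compound was applied for 30 min to K562 cells at 2×10^6 cells/mL. Aliquots were heated for 3 min across 48°C-58°C, pooled, and extracted in PBS with 0.5% NP-40 at 4°C; the supernatant after 21,000xg for 90 min was soluble protein. This was quantified by TMTpro 16plex LC-MS/MS with channel sums equalised, and thermal stability was reported relative to control samples from duplicates, on a log2 fold-change scale.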

[1] = compound: Cc1cccc(CC(=O)N2CCc3c2ccc(-c2cn(C)c4ncnc(N)c24)c3F)n1
How it was run: as §1

nilotinib = compound: Cc1cn(-c2cc(NC(=O)c3ccc(C)c(Nc4nccc(-c5cccnc5)n4)c3)cc(C(F)(F)F)c2)cn1 [nilotinib]
How it was run: as §1

[2] = compound: Cc1nc(Nc2n[nH]c3c2CN(C(=O)N[C@H](CN(C)C)c2ccccc2)C3(C)C)c2sccc2n1
How it was run: as §1

dasatinib = compound: Cc1nc(Nc2ncc(C(=O)Nc3c(C)cccc3Cl)s2)cc(N2CCN(CCO)CC2)n1 [dasatinib]
How it was run: as §1

[3] = compound: Cc1ncc(-c2ccnc(Nc3ccc(S(C)(=O)=O)cc3)n2)n1C(C)C
How it was run: as §1

[4] = compound: Cn1cc(-c2ccc3c(c2)CCN3C(=O)Cc2cccc(C(F)(F)F)c2)c2c(N)ncnc21
How it was run: as §1

[5] = compound: Cn1cc(-c2ccc3nnc(C(F)(F)c4ccc5ncccc5c4)n3n2)cn1
How it was run: as §1

tipifarnib = compound: Cn1cncc1[C@@](N)(c1ccc(Cl)cc1)c1ccc2c(c1)c(-c1cccc(Cl)c1)cc(=O)n2C [tipifarnib]
How it was run: as §1

mubritinib = compound: FC(F)(F)c1ccc(/C=C/c2nc(COc3ccc(CCCCn4ccnn4)cc3)co2)cc1 [mubritinib]
How it was run: as §1

[6] = compound: NC(=O)Nc1cc(-c2cccc(F)c2)sc1C(=O)N[C@H]1CCCNC1
How it was run: as §1

[7] = compound: NC(=O)c1cnc(N[C@@H]2CCCC[C@@H]2N)nc1Nc1cccc(-n2nccn2)c1
How it was run: as §1

[8] = compound: NC1(c2ccc(-c3nc4ccn5c(=O)[nH]nc5c4cc3-c3ccccc3)cc2)CCC1
How it was run: as §1

[9] = compound: NCC(=O)Nc1ccc(-n2nc(C(F)(F)F)cc2-c2ccc3c(ccc4ccccc43)c2)cc1
How it was run: as §1

entinostat = compound: Nc1ccccc1NC(=O)c1ccc(CNC(=O)OCc2cccnc2)cc1 [entinostat]
How it was run: as §1

vorinostat = compound: O=C(CCCCCCC(=O)Nc1ccccc1)NO [vorinostat]
How it was run: as §1

citarinostat = compound: O=C(CCCCCCNC(=O)c1cnc(N(c2ccccc2)c2ccccc2Cl)nc1)NO [citarinostat]
How it was run: as §1

silmitasertib = compound: O=C(O)c1ccc2c(c1)nc(Nc1cccc(Cl)c1)c1ccncc12 [silmitasertib]
How it was run: as §1

[10] = compound: O=C1NC(=O)C(c2cnc3ccccn23)=C1c1cn2c3c(cc(F)cc13)CN(C(=O)N1CCCCC1)CC2
How it was run: as §1

[11] = compound: c1cc(OCCN2CCCCC2)cc(-c2n[nH]c3ccc(-c4nnc[nH]4)cc23)c1
How it was run: as §1

Measured: log2 fold change

MTHFR isoform 2 (UniProt P42898)
inactive: bafetinib 0.039 | [1] 0.008 | nilotinib -0.026 | [2] 0.135 | dasatinib -0.04 | [3] -0.005 | [4] 0.069 | [5] 0.007 | tipifarnib -0.035 | mubritinib 0.085 | [6] -0.04 | [7] -0.092 | [8] -0.046 | [9] -0.063 | entinostat -0.009 | vorinostat -0.054 | citarinostat -0.045 | silmitasertib -0.007 | [10] -0.038 | [11] 0.128

MRPS26 (UniProt Q9BYN8)
inactive: bafetinib 0.275 | [1] -0.003 | dasatinib -0.031 | [4] 0.007 | [5] 0.135 | tipifarnib -0.142 | mubritinib 0.088 | [6] -0.067 | [7] -0.022 | [8] -0.088 | [9] 0.092 | entinostat 0.022 | vorinostat 0.171 | citarinostat -0.04 | silmitasertib -0.044 | [10] -0.039 | [11] 0

MYH16 (UniProt Q9H6N6)
inactive: bafetinib 0.482 | [1] 0.303 | nilotinib 0.061 | [2] 0.062 | [3] 0.088 | [4] 0.068 | tipifarnib -0.248 | mubritinib -0.025 | [6] 0.467 | [7] 0.051 | [8] -0.057 | [9] 0.051 | entinostat 0.289 | vorinostat 0.291 | silmitasertib -0.044

MSL1 (UniProt Q68DK7)
inactive: bafetinib -0.056 | [1] 0.172 | nilotinib 0.004 | [2] 0.068 | dasatinib 0.014 | [3] -0.042 | [5] -0.019 | tipifarnib -0.065 | mubritinib 0.148 | [6] -0.032 | [7] -0.085 | [8] -0.024 | [9] -0.036 | entinostat 0.016 | vorinostat 0.104 | citarinostat 0.047 | silmitasertib -0.152 | [10] -0.153 | [11] 0.017

Quoted from above (2 entries):
MTHFR isoform 2 (UniProt P42898)
inactive: bafetinib 0.039 | [1] 0.008 | nilotinib -0.026 | [2] 0.135 | dasatinib -0.04 | [3] -0.005 | [4] 0.069 | [5] 0.007 | tipifarnib -0.035 | mubritinib 0.085 | [6] -0.04 | [7] -0.092 | [8] -0.046 | [9] -0.063 | entinostat -0.009 | vorinostat -0.054 | citarinostat -0.045 | silmitasertib -0.007 | [10] -0.038 | [11] 0.128

MRPS26 (UniProt Q9BYN8)
inactive: bafetinib 0.275 | [1] -0.003 | dasatinib -0.031 | [4] 0.007 | [5] 0.135 | tipifarnib -0.142 | mubritinib 0.088 | [6] -0.067 | [7] -0.022 | [8] -0.088 | [9] 0.092 | entinostat 0.022 | vorinostat 0.171 | citarinostat -0.04 | silmitasertib -0.044 | [10] -0.039 | [11] 0

The listing continues:

MTHFS (UniProt P49914)
inactive: bafetinib 0.074 | [1] 0.014 | nilotinib 0.154 | [2] 0.045 | dasatinib -0.094 | [3] 0.003 | [4] 0.032 | [5] -0.008 | tipifarnib 0.001 | mubritinib 0.045 | [6] -0.021 | [7] -0.028 | [8] -0.086 | [9] -0.135 | entinostat 0.007 | vorinostat -0.1 | citarinostat 0.025 | silmitasertib 0.021 | [10] 0.014 | [11] -0.057

MTHFD1 (UniProt P11586)
inactive: bafetinib 0.077 | [1] 0.096 | [2] -0.051 | dasatinib -0.135 | [3] 0.019 | [4] 0.069 | [5] 0.021 | tipifarnib -0.088 | mubritinib 0.122 | [6] -0.028 | [7] -0.011 | [8] 0.094 | [9] -0.028 | entinostat 0.024 | vorinostat 0.05 | citarinostat 0.051 | silmitasertib -0.039 | [10] -0.042 | [11] -0.021
active: nilotinib 0.214

MTHFD1L (UniProt B7ZM99)
inactive: bafetinib -0.057 | [1] -0.077 | nilotinib -0.061 | [2] 0.058 | dasatinib -0.088 | [3] -0.06 | [4] 0.035 | [5] 0.014 | tipifarnib -0.056 | mubritinib 0.055 | [7] -0.057 | [8] -0.136 | [9] -0.07 | vorinostat 0.076 | citarinostat 0.027 | silmitasertib 0 | [11] 0.03

MTA2 (UniProt O94776)
inactive: bafetinib 0.049 | [1] 0.038 | nilotinib -0.052 | [2] -0.132 | dasatinib -0.093 | [3] -0.025 | [4] 0.004 | [5] 0.027 | tipifarnib -0.004 | mubritinib -0.071 | [6] 0.04 | [7] -0.125 | [8] -0.084 | [9] -0.032 | entinostat 0.098 | vorinostat -0.085 | citarinostat 0.031 | silmitasertib -0.027 | [10] 0.004 | [11] -0.071

MTPN (UniProt P58546)
inactive: bafetinib -0.02 | [1] 0.035 | nilotinib 0.032 | [2] -0.053 | dasatinib 0.009 | [3] -0.032 | [4] 0.124 | [5] 0.349 | tipifarnib -0.105 | mubritinib 0.031 | [6] -0.005 | [7] -0.004 | [8] -0.014 | [9] -0.03 | entinostat 0.129 | vorinostat -0.12 | citarinostat -0.097 | silmitasertib -0.016 | [10] -0.148 | [11] 0.057

MYBBP1A isoform 2 (UniProt Q9BQG0)
inactive: bafetinib 0.011 | [1] -0.028 | nilotinib -0.164 | [2] -0.13 | dasatinib -0.032 | [3] -0.276 | [4] -0.126 | [5] 0.021 | [7] -0.217 | vorinostat 0.111 | citarinostat 0.15 | [10] 0.209 | [11] -0.208

MTREX (UniProt P42285)
inactive: bafetinib -0.006 | [1] 0.023 | nilotinib -0.023 | [2] 0.015 | dasatinib -0.091 | [3] -0.004 | [4] 0.017 | [5] 0.011 | tipifarnib -0.031 | mubritinib 0.079 | [6] 0.086 | [7] -0.02 | [8] 0.03 | [9] -0.038 | entinostat -0.001 | vorinostat 0.007 | citarinostat 0.017 | silmitasertib -0.016 | [10] -0.052 | [11] -0.012

MTHFD1L (UniProt Q6UB35)
inactive: bafetinib -0.004 | [1] 0.025 | nilotinib -0.014 | [2] -0.012 | dasatinib -0.073 | [3] -0.013 | [4] 0.064 | [5] 0.028 | tipifarnib -0.032 | mubritinib 0.064 | [6] -0.008 | [7] -0.015 | [8] -0.057 | [9] -0.046 | entinostat -0.021 | vorinostat 0.01 | citarinostat 0.053 | silmitasertib -0.044 | [10] -0.085 | [11] -0.006

MRPS6 (UniProt P82932)
inactive: bafetinib 0.062 | [1] 0.159 | nilotinib -0.146 | [2] 0.062 | dasatinib -0.02 | [3] -0.009 | [4] 0.007 | [5] 0.148 | tipifarnib -0.106 | mubritinib 0.112 | [6] 0.023 | [7] 0.009 | [8] -0.133 | [9] 0.003 | entinostat 0.03 | vorinostat 0.108 | citarinostat 0.079 | silmitasertib -0.036 | [10] -0.042 | [11] -0.031

MSTO1 (UniProt Q9BUK6)
inactive: bafetinib -0.03 | [1] 0.028 | nilotinib -0.057 | [2] 0.033 | dasatinib -0.174 | [3] -0.005 | [4] 0.064 | [5] 0.037 | tipifarnib -0.096 | mubritinib 0.011 | [6] 0.013 | [7] 0.015 | [8] -0.144 | [9] -0.059 | entinostat -0.005 | vorinostat 0.053 | citarinostat 0.08 | silmitasertib -0.015 | [10] -0.045 | [11] 0.017

MT1G (UniProt P13640)
inactive: bafetinib -0.137 | [1] 0.112 | nilotinib -0.166 | [2] -0.033 | dasatinib 0.099 | [3] 0.168 | [4] 0.052 | [5] -0.084 | tipifarnib -0.028 | mubritinib -0.034 | [6] -0.021 | [7] 0.14 | [8] 0.009 | [9] 0.109 | entinostat -0.049 | vorinostat 0.181 | citarinostat 0.025 | silmitasertib 0.058 | [11] 0.034

MTMR1 (UniProt Q13613)
inactive: bafetinib 0.006 | [1] 0.059 | dasatinib -0.014 | [4] 0 | [5] -0.061 | tipifarnib -0.1 | mubritinib 0.021 | [6] 0.067 | [7] -0.139 | [8] 0.023 | [9] -0.052 | entinostat 0.067 | vorinostat 0.089 | citarinostat -0.177 | silmitasertib 0.011 | [10] 0.142 | [11] -0.113

MRPS18C (UniProt Q9Y3D5)
inactive: bafetinib 0.016 | [1] 0.103 | dasatinib -0.117 | [4] -0.116 | [5] -0.05 | tipifarnib 0.062 | mubritinib 0.221 | [6] 0.05 | [7] -0.124 | [8] 0.024 | [9] 0.009 | entinostat -0.063 | vorinostat 0.108 | citarinostat -0.038 | silmitasertib -0.061 | [10] 0.013 | [11] -0.103
